From PubChem BioAssay AID504834 (National Center for Advancing Translational Sciences (NCATS), 2011)
Screen size: about 320,000 compounds; about 22,000 (6.9%) were called active. This list was built around the results that the source calls inconclusive (neither active nor inactive); the mix of calls is not that of the screen. The call rests on the fitted dose curve; in most records, active means well fitted inhibition curve with a large enough effect; inconclusive means small, poorly fitted or top-dose-only effect, or another doubt; inactive means no such curve, though single readings can be large or run the other way. Potencies beside an inconclusive call are fits to weak or partial responses and may not hold up.
Potency means the concentration at half of the fitted maximal effect.

Experiment: Primary qHTS for delayed death inhibitors of the malarial parasite plastid, 96 hour incubation
Conditions: P. falciparum luciferase reporter growth; series mostly up to 28.7 µM
Procedure, shortened: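 Infected RBCs, 2% Hct / 0.05% parasitemia final; luciferase-reporter P. falciparum; cpd 96 h, 37 C, 5% CO2; luciferase detection reagent; luminescence.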
For `CC1(C)Cc2cccc(C(=O)NCc3ccco3)c2O1`, the Potency was inconclusive: 5.86 µM [inhibitor, partial curve, poor fit].
With `C=C(C)CCC(C)N1CCC(n2nccc2NC(=O)CCOc2ccccc2)CC1` (stereo not given) the Potency was inconclusive: 13.1 µM [inhibitor, single point].
In the case of `COc1ccc(C(=O)N2CCCCCC2)cc1OC1CCN(C(C)=O)CC1`, the Potency is reported as active: 10.4 µM.
With `COc1ccc(-n2c3c(cc(C(=O)N4CCC(C)CC4)c2=O)C(=O)CC(C)(C)C3)cc1` the Potency was inconclusive: 14.7 µM [inhibitor, partial curve, poor fit].
In the case of `COc1ccccc1N1CCN(/N=C\c2ccccc2)CC1`, the Potency is reported as inconclusive: 18.5 µM [inhibitor, single point].
For `CC(C)(C)OC(=O)NCCCCCc1nnc(SCc2ccccc2)o1`, the Potency was inconclusive: 10.4 µM [inhibitor, partial curve, poor fit].
For `COc1ccc(S(=O)(=O)c2c(O)c3ccc(C(=O)Nc4ccccc4F)cc3[nH]c2=O)cc1`, the Potency was inconclusive: 2.94 µM [inhibitor, partial curve, poor fit].
With `COc1ccc(C2(C)ON(c3ccccc3C(F)(F)F)C2=O)cc1` (stereo not given) the Potency was active: 2.62 µM.
In the case of `CCOc1cc(N2CCOCC2)c(OCC)cc1NC(=O)CN1C(=O)NC2(CCCCCCC2)C1=O`, the Potency is reported as inconclusive: 5.22 µM [inhibitor, partial curve, poor fit].
For `CC(C)OCCCNC(=O)c1cc2c(s1)CS(=O)(=O)C2`, the Potency was inconclusive: 2.62 µM [inhibitor, partial curve, poor fit].
For `Cc1ccccc1NC(=O)COC(=O)C1(C)CC1(Cl)Cl` (stereo not given), the Potency was “inactive”.
With `O=C(O)Cn1c(Cc2ccccc2)nc2ccccc21` the Potency was “inactive”.
For `CCOC(=O)N1CCc2c(sc3c2c(=O)n(Cc2ccccc2)c(=O)n3Cc2ccccc2F)C1`, the Potency was inconclusive: 18.5 µM [inhibitor, single point].
With `COc1ccc(N2CC(C(=O)Nc3nnc(SCC(=O)NCc4ccco4)s3)CC2=O)cc1` (stereo not given) the Potency was inconclusive: 8.28 µM [inhibitor, partial curve].
In the case of `CSCC(C)N1CCC(n2nccc2NC(=O)CCOc2ccccc2)CC1` (stereo not given), the Potency is reported as inconclusive: 11.7 µM [inhibitor, partial curve, poor fit].
In the case of `Cc1cc(NC(=O)CCC(=O)N(Cc2cccs2)C(C(=O)NC2CCCC2)c2ccncc2)no1` (stereo not given), the Potency is reported as “inactive”.
For `FC(F)(F)c1cccc(CNC2c3ccccc3-c3ccccc32)c1`, the Potency was inconclusive: 16.5 µM [inhibitor, single point].
For `CCOc1ccccc1C(=O)Nc1cc(C)ccc1NC(=O)c1ccco1`, the Potency was inconclusive: 18.5 µM [inhibitor, single point].
With `NNC(=O)c1ccc(COCC(F)(F)F)cc1` the Potency was “inactive”.
With `Cn1c(C=O)c(-c2ccc3cc[nH]c3c2)c2ccccc21` the Potency was inconclusive: 13.1 µM [inhibitor, single point].
For `Cc1ccc(-c2nnc(SCC(=O)NC3CCCC3)n2C)cc1`, the Potency was inconclusive: 18.5 µM [inhibitor, single point].
In the case of `O=C(c1cccc(C(F)(F)F)c1)N1CCC(O)(CS(=O)(=O)Cc2ccccc2)CC1`, the Potency is reported as “inactive”.
In the case of `CC(=O)Oc1ccc(C2(C)CC(C)(C)Oc3cc(OC(C)=O)ccc32)c(OC(C)=O)c1` (stereo not given), the Potency is reported as inconclusive: 16.5 µM [inhibitor, single point].
In the case of `CC(=O)N[C@H](CC(C)C)C(=O)O`, the Potency is reported as “inactive”.
In the case of `CCCCCNCc1ccc(OCc2ccc(Cl)nc2)c(OC)c1`, the Potency is reported as inconclusive: 18.5 µM [inhibitor, single point].
For `COc1ccc(C(CNC(=O)c2oc3ccc(C)cc3c2C)N2CCCCC2)cc1` (stereo not given), the Potency was inconclusive: 3.7 µM [inhibitor, partial curve, poor fit].
For `O=C(c1cc2c(s1)-c1ccccc1OC2)N1CCCC1`, the Potency was “inactive”.
In the case of `Cc1ccc(C2(C)NC(=O)N(CC(=O)Nc3cc(S(=O)(=O)N(C)C)ccc3C)C2=O)cc1` (stereo not given), the Potency is reported as “inactive”.
For `CCN(CCO)c1ccc(-n2c(N)c(C(=O)OC)c3nc4ccccc4nc32)cc1`, the Potency was inconclusive: 10.4 µM [inhibitor, single point].
In the case of `COCCCn1c(SCCc2ccccc2)nc2cc(OC)c(OC)cc2c1=N`, the Potency is reported as active: 9.28 µM.
In the case of `O=C(O)CC12CC3CC(C1)CC(n1ncc(NCC4CCCO4)c(Cl)c1=O)(C3)C2` (stereo not given), the Potency is reported as “inactive”.
With `CN(C)CCNS(=O)(=O)c1ccc(N2CCc3ccccc32)c([N+](=O)[O-])c1` the Potency was inconclusive: 13.1 µM [inhibitor, partial curve, poor fit].
For `CC12CCC(C(=O)Nc3ncc([N+](=O)[O-])s3)(OC1=O)C2(C)C` (stereo not given), the Potency was inconclusive: 0.0586 µM [inhibitor, full curve].
For `O=C1CCC([N+](=O)[O-])C(c2ccc(F)c(Br)c2)N1` (stereo not given), the Potency was inconclusive: 11.7 µM [inhibitor, single point].
For `CC(=O)Nc1ccc(C(=O)C(Cc2ccccc2)N(C)C)cc1` (stereo not given), the Potency was “inactive”.
For `CCn1c(CSc2nnc(C)n2-c2ccccc2)nc2cc(S(=O)(=O)N(C)C)ccc21`, the Potency was “inactive”.
With `COc1ccc(CCN(C)C(=O)c2c(C)noc2C)cc1OC` the Potency was inconclusive: 13.1 µM [inhibitor, partial curve, poor fit].
With `CCCCNS(=O)(=O)c1ccc(NC(=O)C(Sc2ccccc2)c2ccccc2)cc1` (stereo not given) the Potency was inconclusive: 4.15 µM [inhibitor, single point].
With `CCOc1ccc(NC(=O)CN2CCN(C(=O)C3CCCO3)CC2)cc1` (stereo not given) the Potency was inconclusive: 11.7 µM [inhibitor, partial curve].
In the case of `N#Cc1ccc(C(=O)Nc2ccn(-c3ccccc3)n2)cc1`, the Potency is reported as inconclusive: 18.5 µM [inhibitor, single point].
In the case of `COc1cc(NC(=S)N2CCCCC2C)c(OC)cc1Cl` (stereo not given), the Potency is reported as inconclusive: 18.5 µM [inhibitor, single point].
With `CCN1CCN(CCC(=O)Nc2ccccc2OC)CC1` the Potency was inconclusive: 5.22 µM [inhibitor, partial curve, poor fit].
With `COC(=O)/C(=C\C(=O)c1ccccc1)Nc1cccc(C(F)(F)F)c1` the Potency was “inactive”.
In the case of `COc1ccc(NC(=O)c2cc(-c3ccc4c(c3)OCO4)on2)cc1`, the Potency is reported as inconclusive: 18.5 µM [inhibitor, single point].
In the case of `COCCn1c(SCCOc2ccccc2)nc2ccccc2c1=O`, the Potency is reported as “inactive”.
With `Cc1cc(C(=O)NCc2ccc3c(c2)OCO3)c(C)o1` the Potency was “inactive”.
With `CC1Cc2ccccc2N1Cc1cc(=O)n2ccsc2n1` (stereo not given) the Potency was active: 13.1 µM.
For `COc1ccc(C2C=C(C34CC5CC(CC(C5)C3)C4)NC(=S)N2)cc1` (stereo not given), the Potency was active: 11.7 µM.
In the case of `COc1cc(C(=O)NCCC(=O)N2CCCCC2)cc(OC)c1OC`, the Potency is reported as inconclusive: 4.15 µM [inhibitor, partial curve, poor fit].
In the case of `Cc1c(Cl)sn(-c2ccc(Cl)cc2)c1=O`, the Potency is reported as inconclusive: 0.0037 µM [inhibitor, full curve, poor fit].
In the case of `CCCCN(CC)CCNS(=O)(=O)c1ccc2c(c1)oc(=O)n2C`, the Potency is reported as inconclusive: 0.0657 µM [inhibitor, full curve, poor fit].
With `COc1cc2cc(CCCOC(=O)c3ccc4c(c3)OCO4)oc(=O)c2cc1OC` the Potency was inconclusive: 13.1 µM [inhibitor, single point].
For `Cc1cc(NC(=O)COC(=O)COc2ccc3c4c(c(=O)oc3c2)CCC4)no1`, the Potency was “inactive”.
For `CN(C)C(CNC(=O)c1ccc(Br)cc1)c1ccco1` (stereo not given), the Potency was “inactive”.
With `Cc1ccc(-n2nc(C)c(/C=N/n3c(C)n[nH]c3=S)c2Cl)cc1` the Potency was “inactive”.
With `CC1=NN(C(C#N)c2ccc([N+](=O)[O-])cc2)C(C)(C)C1` (stereo not given) the Potency was inconclusive: 10.4 µM [inhibitor, partial curve, poor fit].
With `O=C(NC(=S)N1CCN(C/C=C/c2ccccc2)CC1)c1ccc(F)cc1` the Potency was inconclusive: 11.7 µM [inhibitor, single point].
For `CCC(=O)Nc1ccc(C(=O)CSc2nc3ccc(C)cc3[nH]2)cc1`, the Potency was “inactive”.
With `CC(C)(C)c1csc(NC(=O)CSc2nc3ccccc3c(=O)[nH]2)n1` the Potency was “inactive”.
For `CCCCn1c(N)c(N(CC(C)C)C(=O)c2cc(Cl)nc3ccccc23)c(=O)[nH]c1=O`, the Potency was “inactive”.
With `COC(=O)c1sccc1NC(=O)CN(C)NS(=O)(=O)c1ccc(F)cc1` the Potency was “inactive”.
In the case of `O=c1c2ccccc2nc(/C=C/c2ccc(Cl)cc2)n1CCO`, the Potency is reported as inconclusive: 16.5 µM [inhibitor, single point].
In the case of `COc1cc(-c2nc3sc(C)c(C)c3c(=O)o2)cc(OC)c1OC`, the Potency is reported as inconclusive: 8.28 µM [inhibitor, partial curve].
In the case of `O=C(COc1ccc2ccccc2c1)N/N=C/C1CC=CCC1` (stereo not given), the Potency is reported as inconclusive: 5.86 µM [inhibitor, partial curve].
For `CCOc1ccc(OCCC(=O)N(CCC2=CCCCC2)c2c(N)n(Cc3ccccc3)c(=O)[nH]c2=O)cc1`, the Potency was “inactive”.
For `Cc1ccc(CONC(=O)c2cccc([N+](=O)[O-])c2)cc1`, the Potency was “inactive”.
For `O=C1c2cccnc2C(=O)N1Cc1ccc(S(=O)(=O)NCc2ccco2)cc1`, the Potency was inconclusive: 11.7 µM [inhibitor, single point].
For `NC(=O)Nc1ccc(C(=O)OCC(=O)Nc2cccc(S(=O)(=O)NC3=NCCC3)c2)cc1`, the Potency was inconclusive: 18.5 µM [inhibitor, single point].
In the case of `CC(C)(C)C1CCc2c(sc(NC(=O)C3CC=CCC3C(=O)O)c2C#N)C1` (stereo not given), the Potency is reported as inconclusive: 0.465 µM [inhibitor, full curve, poor fit].
For `C(=N\Nc1nc2ccccc2[nH]1)/c1cccc2nccnc12`, the Potency was inconclusive: 1.47 µM [inhibitor, full curve].
